# Results of single-concentration screens

A: 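Phenotypic screen: M. tuberculosis growth, cholesterol and DPPC medium, 4 days; the read-out is not stated. Concentration: 50 µM. The record gives no direction; compounds that gave an IC50 in retests scored well above the rest, so higher reads as more growth inhibition. Of about 69,000 compounds tested this way, about 370 (0.54%) reached 50% or more in at least one test.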
B: 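Growth of Mycobacterium tuberculosis over 3 days (7H9 medium with glucose and tyloxapol); the read-out is not stated. Compounds at 50 µM. The record gives no direction; compounds that gave an IC50 in retests scored well above the rest, so higher reads as more growth inhibition. Of about 69,000 compounds tested this way, about 760 (1.1%) reached 50% or more in at least one test.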

Each number is a percent effect as filed.
The controls that fix the scale are not given in the record; negative values are as filed.
Compounds were drawn at random from those tested, without regard to their results.
Two or more numbers in one place are separate tests of the same structure; such repeats can differ widely.

For O=C(N1CCC(Nc2cccnn2)CC1)C1(c2ccc(F)cc2)CC1 the result was A: 16.65%; B: 16.35%.
For O=C(c1ccc(Cl)c(Cl)c1)N1CCCC(n2cncn2)C1 (configuration not stated) the result was A: -2.387%; B: 21.65%.
For Cc1cc2ccccc2n1CC(=O)NC(C)C(=O)N1CCOCC1 (configuration not stated) the result was A: 15.03%; B: -12.9% & 2.892%.
For CC(NC(=O)N1CCCN(C)CC1)c1ccc(S(N)(=O)=O)cc1 (configuration not stated) the result was A: 3.973%; B: 4.687%.
For [H][C@@]12CS(=O)(=O)C[C@]1([H])N(C(=O)Nc1cccc(F)c1)CCN2C(=O)CC the result was A: 17.51%; B: 15.17%.
For N#Cc1ccc(S(=O)(=O)Nc2cnn(C3CCOCC3)c2)cc1 the result was A: -16.56%; B: -2.222%.
For c1cc2n(n1)CC(CNCc1ccc(OC3CCCC3)nc1)CN2 (configuration not stated) the result was A: 6.15%; B: 27.9%.
For CS(=O)(=O)NCC1OCCc2cn(CC3CC3)nc21 (configuration not stated) the result was A: -6.678%; B: 23.64%.
For CCN(c1cccc(F)c1)S(=O)(=O)c1cc(C(=O)O)cc2c1CCC2 the result was A: -7.91%; B: 3.981%.
For NCC1CCCN(c2nc(-c3ccccc3)nc3c2CCNCC3)C1 (configuration not stated) the result was A: 52.31% & 31.75%; B: 56.71%.
For CN(CC1(CO)CC1)C(=O)C1CCC(=O)N(Cc2ccc(Cl)cc2)C1 (configuration not stated) the result was A: -9.589% & -8.783%; B: -19.92%.
For Cc1cc(C)n(CC2CN(Cc3nnc(C)o3)CCO2)n1 (configuration not stated) the result was A: 0.3372%; B: 0.2629%.
For Cc1cc2n(n1)CC(CNCc1ccnc(-n3ccnc3C)c1)CN2 (configuration not stated) the result was A: -6.815%; B: 14.14%.
For CCCOC(C)C(=O)N1CCC(O)(c2ccc3nc(C)ccc3c2)CC1 (configuration not stated) the result was A: -26.14%; B: -13.55%.
For O=C(O)C1CCN(C(=O)Cn2ccc3c(Cl)cccc32)CC1 the result was A: -13.71%; B: -8.454%.
For O=C(O)C(F)(F)F.[H][C@@]12CCCO[C@]1([H])[C@H](NC(=O)c1cnoc1C)CN(Cc1ccoc1)C2 the result was A: 5.493%; B: -38.53%.
For CS(=O)(=O)N1CC2(CCN(c3nccs3)CC2)c2ccccc21 the result was A: 18.64%; B: 2.374% & 8.788%.
For O=C1NCc2ccccc2CC12CCCN(CCCc1ccccc1)C2 (configuration not stated) the result was A: -6.608%; B: 7.594%.
For O=C1COC2(CCN(Cc3ccco3)CC2)CN1Cc1cccnc1 the result was A: 3.263% & -7.021%; B: -4.174%.
For Cc1n[nH]c(C)c1Sc1ccccc1NC(=O)N1CCOCC(O)C1 (configuration not stated) the result was A: -20.19%; B: -4.962%.
For N#CCCNC(=O)CN1CC(n2cccn2)C1 the result was A: -5.162%; B: -1.781% & -2.399%.
For O=C(CC1=CSC2=NCCN12)N1CCCC(CCc2cccc(F)c2)C1 (configuration not stated) the result was A: 6.589%; B: 6.176%.
For C[C@@H]1CN(C(=O)CCN2CCOCC2)CC[C@]1(C)O the result was A: 0.746%; B: 9.228%.
For CCCNS(=O)(=O)c1cc2c3c(c1)c(C)cc(=O)n3CCC2 the result was A: 4.481% & 5.095%; B: -35.47%.
For Cc1c2nnn(CC(=O)N(C)C)c(=O)c2nn1C the result was A: -3.513%; B: 21.14%.
For O=C(O)C(F)(F)F.[H][C@@]12OCCN(S(=O)(=O)C3CC3)[C@@]1([H])CC[C@@H]2Oc1cccnc1 the result was A: 8.134%; B: -9.504%.
For O=C(c1cc(Br)ccc1-n1cnnn1)N1CCCCC1 the result was A: -5.202%; B: 25.09%.
For CSCC(=O)N1C[C@@H](C)[C@](O)(C(C)C)C1 the result was A: -3.123% & -17.55%; B: -5.758%.
For COc1ccc(C(=O)N2CC(=O)N(C3CCC3)CC(O)C2)cc1OC (configuration not stated) the result was A: 10.55%; B: 18.02%.
For O=C(O)C(F)(F)F.[H][C@]12CCC[C@@]1(COCc1csc(C)n1)CN(Cc1cc(C)on1)C2 the result was A: -10.96%; B: 20.41%.
For CNC(=O)c1cccc(CCNc2ccccn2)c1 the result was A: -7.744%; B: -4.418% & 4.866%.
For NC(=O)c1ccc(OCCC(=O)NC2CCc3c(F)cccc32)cc1 (configuration not stated) the result was A: -11.44%; B: 20.1%.
For CS(=O)(=O)NCCCN1CCCC1c1ccsc1 (configuration not stated) the result was A: -3.091%; B: -21.33%.
For CC(=O)NCC(=O)N1CCn2cc(CN3CCN(C)CC3)nc2C1.O=C(O)C(F)(F)F.O=C(O)C(F)(F)F the result was A: -2.609%; B: -11.03%.
For COc1ccc(/C=C/CN2CCCC3(C2)CN(C)C(=O)O3)cc1 (configuration not stated) the result was A: -28.51%; B: -26.11%.
For CN(C)C(=O)NC1COC2(CCN(Cc3ccco3)CC2)C1 (configuration not stated) the result was A: -5.817%; B: -5.302%.
For N#Cc1c(F)cccc1Nc1cnn(CC(O)CN2CCOCC2)c1 (configuration not stated) the result was A: 3.624%; B: -0.8433%.
For CCOC(C)C(=O)N1CCN(S(C)(=O)=O)CC1 (configuration not stated) the result was A: -24.75%; B: -26.63%.
For CCc1ccc(CNC(=O)Nc2cc(C)on2)s1 the result was A: -16.6%; B: -1.791% & 17.33%.
For CC(C)c1ncc2c(n1)CN(c1ncnc3[nH]ccc13)CC2 the result was A: 8.669%; B: 0.6427%.
For Cc1cc(C)cc(C2(C(=O)NCC(C)CN3CCCC3=O)CC2)c1 (configuration not stated) the result was A: -15.11%; B: -8.834%.
For Cn1cc(C(=O)NCc2ccc(N3CCCC3)nc2)ccc1=O the result was A: 4.634%; B: -14.55%.

For reference, 4 entries once more:

* CN(CC1(CO)CC1)C(=O)C1CCC(=O)N(Cc2ccc(Cl)cc2)C1 (configuration not stated) : A: -9.589% & -8.783%; B: -19.92%
* [H][C@@]12CS(=O)(=O)C[C@]1([H])N(C(=O)Nc1cccc(F)c1)CCN2C(=O)CC : A: 17.51%; B: 15.17%
* O=C(CC1=CSC2=NCCN12)N1CCCC(CCc2cccc(F)c2)C1 (configuration not stated) : A: 6.589%; B: 6.176%
* CCCNS(=O)(=O)c1cc2c3c(c1)c(C)cc(=O)n3CCC2 : A: 4.481% & 5.095%; B: -35.47%

From ChEMBL document CHEMBL3988442, “University of Dundee, Small-Polar-MMV Screening Library” (2021).